The supplement of paper PMC10849652
The list shows a part of the results.

Sequences of proteins named here, by UniProt entry; tags and fusion partners are left off. A change or cut given only in a name is not applied to a line headed by its entry.
UniProt Q96SZ5, whole entry, looked up: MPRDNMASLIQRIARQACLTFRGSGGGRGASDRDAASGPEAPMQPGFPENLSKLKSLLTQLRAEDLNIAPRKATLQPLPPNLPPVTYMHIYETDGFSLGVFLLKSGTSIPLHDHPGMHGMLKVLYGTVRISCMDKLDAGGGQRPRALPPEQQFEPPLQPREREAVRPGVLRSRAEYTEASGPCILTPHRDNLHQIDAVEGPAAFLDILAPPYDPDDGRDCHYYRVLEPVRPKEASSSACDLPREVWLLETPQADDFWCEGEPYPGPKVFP
UniProt Q02952: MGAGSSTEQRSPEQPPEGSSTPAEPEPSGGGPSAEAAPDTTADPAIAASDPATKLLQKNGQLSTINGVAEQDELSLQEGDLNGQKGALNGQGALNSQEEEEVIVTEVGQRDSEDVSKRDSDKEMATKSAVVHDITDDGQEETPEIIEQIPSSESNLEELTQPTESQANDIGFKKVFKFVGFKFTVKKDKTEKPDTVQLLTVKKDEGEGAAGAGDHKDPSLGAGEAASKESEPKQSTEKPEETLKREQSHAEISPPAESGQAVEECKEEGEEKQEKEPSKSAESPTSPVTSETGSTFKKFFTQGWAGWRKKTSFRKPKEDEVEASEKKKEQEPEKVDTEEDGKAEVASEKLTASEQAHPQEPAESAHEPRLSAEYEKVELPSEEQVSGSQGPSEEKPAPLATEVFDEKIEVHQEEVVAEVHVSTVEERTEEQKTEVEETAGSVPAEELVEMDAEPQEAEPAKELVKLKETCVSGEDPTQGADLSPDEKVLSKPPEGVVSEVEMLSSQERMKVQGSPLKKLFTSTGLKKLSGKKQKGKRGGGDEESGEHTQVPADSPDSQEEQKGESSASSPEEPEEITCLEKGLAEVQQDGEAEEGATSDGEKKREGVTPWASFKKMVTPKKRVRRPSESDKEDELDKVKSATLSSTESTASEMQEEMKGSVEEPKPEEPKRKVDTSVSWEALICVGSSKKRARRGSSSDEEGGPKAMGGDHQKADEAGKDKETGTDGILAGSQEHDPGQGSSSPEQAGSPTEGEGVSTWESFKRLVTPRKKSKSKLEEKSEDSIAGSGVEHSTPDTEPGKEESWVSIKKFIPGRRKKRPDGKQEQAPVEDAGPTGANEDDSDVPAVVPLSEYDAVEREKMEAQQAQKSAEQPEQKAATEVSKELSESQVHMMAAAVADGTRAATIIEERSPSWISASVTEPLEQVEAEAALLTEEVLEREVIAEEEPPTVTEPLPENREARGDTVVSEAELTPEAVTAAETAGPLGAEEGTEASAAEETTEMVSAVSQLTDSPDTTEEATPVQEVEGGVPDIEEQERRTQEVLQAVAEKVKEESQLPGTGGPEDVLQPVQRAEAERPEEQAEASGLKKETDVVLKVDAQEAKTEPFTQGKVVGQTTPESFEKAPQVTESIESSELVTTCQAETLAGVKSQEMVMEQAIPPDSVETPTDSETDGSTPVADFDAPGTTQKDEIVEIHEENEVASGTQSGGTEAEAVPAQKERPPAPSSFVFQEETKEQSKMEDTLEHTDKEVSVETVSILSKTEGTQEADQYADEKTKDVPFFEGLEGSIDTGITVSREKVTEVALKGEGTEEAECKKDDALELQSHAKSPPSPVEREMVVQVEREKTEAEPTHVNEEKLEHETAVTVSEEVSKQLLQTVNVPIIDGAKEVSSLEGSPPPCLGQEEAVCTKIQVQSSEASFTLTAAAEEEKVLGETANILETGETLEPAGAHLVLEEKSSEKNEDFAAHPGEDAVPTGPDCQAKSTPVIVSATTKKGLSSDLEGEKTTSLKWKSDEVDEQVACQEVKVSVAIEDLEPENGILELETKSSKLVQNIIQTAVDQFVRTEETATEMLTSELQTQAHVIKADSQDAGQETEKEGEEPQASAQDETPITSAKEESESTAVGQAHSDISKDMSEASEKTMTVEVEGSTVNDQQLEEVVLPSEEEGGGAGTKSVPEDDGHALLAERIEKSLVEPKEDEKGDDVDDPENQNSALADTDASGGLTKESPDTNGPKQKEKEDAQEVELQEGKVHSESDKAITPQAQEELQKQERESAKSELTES
UniProt P33121: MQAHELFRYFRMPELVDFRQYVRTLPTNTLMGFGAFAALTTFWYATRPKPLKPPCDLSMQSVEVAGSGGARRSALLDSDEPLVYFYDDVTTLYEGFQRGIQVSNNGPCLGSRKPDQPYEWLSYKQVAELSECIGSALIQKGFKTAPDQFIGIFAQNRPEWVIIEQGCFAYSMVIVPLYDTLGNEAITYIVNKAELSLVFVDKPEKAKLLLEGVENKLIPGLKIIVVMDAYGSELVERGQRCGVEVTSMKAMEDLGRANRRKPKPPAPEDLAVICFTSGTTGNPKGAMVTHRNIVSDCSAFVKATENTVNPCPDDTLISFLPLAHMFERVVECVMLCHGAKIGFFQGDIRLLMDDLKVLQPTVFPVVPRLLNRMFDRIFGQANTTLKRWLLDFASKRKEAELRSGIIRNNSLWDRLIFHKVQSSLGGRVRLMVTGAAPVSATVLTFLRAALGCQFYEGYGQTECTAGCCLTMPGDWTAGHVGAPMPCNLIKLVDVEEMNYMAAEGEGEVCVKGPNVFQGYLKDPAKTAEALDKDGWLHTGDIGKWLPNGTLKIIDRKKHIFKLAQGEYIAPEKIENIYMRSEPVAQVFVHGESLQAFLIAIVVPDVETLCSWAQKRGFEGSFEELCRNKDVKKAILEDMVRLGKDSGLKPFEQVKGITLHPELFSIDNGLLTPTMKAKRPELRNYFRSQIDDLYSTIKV
UniProt Q9Y305: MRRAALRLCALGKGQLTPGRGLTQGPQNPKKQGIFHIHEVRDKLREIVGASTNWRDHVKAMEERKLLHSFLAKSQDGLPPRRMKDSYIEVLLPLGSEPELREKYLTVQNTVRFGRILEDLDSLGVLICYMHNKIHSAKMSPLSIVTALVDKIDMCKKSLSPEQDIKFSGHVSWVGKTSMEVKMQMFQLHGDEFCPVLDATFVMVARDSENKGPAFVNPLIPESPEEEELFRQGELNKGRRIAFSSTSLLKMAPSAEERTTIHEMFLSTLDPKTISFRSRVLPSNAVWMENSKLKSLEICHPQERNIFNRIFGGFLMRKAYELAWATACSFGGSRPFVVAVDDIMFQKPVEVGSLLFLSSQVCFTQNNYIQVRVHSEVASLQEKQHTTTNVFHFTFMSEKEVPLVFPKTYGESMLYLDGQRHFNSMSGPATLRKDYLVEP
UniProt Q9BRR6: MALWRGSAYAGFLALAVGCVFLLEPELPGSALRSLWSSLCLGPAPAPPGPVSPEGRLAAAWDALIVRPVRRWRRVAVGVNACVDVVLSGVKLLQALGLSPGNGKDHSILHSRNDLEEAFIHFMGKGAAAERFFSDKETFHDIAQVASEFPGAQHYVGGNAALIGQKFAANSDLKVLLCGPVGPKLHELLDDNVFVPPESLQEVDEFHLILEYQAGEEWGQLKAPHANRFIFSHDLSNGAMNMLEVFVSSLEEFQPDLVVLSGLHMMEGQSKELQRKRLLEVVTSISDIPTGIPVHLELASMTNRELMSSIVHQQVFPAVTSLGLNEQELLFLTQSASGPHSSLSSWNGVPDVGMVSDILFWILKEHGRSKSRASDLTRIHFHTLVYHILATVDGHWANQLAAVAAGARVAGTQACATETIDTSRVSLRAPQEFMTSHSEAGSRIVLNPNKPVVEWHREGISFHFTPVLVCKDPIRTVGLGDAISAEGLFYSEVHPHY
UniProt Q8N302: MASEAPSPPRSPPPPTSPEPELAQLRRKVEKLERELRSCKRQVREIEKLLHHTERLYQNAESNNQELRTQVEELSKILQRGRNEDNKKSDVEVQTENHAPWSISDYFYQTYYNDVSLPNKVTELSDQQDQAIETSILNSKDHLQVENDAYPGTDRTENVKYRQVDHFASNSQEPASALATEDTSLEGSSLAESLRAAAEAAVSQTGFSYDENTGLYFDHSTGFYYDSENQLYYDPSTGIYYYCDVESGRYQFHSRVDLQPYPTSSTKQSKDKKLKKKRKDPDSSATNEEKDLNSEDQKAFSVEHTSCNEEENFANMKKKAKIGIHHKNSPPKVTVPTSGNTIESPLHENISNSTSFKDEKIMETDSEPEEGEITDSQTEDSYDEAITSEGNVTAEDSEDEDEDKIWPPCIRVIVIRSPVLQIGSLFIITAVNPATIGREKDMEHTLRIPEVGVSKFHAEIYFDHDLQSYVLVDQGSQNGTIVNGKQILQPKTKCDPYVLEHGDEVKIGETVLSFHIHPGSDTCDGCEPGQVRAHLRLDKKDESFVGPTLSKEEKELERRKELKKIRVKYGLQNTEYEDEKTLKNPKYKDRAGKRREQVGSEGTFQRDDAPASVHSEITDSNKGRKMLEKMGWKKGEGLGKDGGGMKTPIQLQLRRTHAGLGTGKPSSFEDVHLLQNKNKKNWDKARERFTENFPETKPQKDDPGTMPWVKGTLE
UniProt P20933: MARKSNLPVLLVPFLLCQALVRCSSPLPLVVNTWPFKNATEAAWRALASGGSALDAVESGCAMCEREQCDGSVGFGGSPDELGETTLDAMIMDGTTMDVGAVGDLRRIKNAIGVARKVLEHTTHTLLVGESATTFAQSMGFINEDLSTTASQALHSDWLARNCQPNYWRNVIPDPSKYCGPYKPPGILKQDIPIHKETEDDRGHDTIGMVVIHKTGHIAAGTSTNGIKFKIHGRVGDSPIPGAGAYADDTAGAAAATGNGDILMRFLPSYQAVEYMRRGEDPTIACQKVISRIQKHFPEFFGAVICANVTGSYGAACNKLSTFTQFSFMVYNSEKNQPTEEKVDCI
UniProt Q3MIX3: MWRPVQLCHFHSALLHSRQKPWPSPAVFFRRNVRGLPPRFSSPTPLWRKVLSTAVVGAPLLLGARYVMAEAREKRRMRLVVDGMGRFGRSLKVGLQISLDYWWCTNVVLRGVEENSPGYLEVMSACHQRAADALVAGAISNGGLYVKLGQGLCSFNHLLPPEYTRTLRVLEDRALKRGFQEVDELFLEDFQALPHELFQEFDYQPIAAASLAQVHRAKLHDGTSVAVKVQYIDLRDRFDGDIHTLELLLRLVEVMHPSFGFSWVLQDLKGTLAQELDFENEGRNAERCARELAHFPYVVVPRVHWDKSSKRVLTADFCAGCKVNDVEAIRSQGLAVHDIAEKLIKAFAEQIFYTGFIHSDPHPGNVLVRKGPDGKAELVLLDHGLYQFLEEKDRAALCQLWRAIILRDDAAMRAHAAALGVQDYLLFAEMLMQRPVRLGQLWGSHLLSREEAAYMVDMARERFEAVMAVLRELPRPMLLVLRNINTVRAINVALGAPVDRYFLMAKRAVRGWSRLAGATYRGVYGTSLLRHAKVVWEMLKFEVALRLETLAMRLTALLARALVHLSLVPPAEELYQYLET
UniProt Q6RW13: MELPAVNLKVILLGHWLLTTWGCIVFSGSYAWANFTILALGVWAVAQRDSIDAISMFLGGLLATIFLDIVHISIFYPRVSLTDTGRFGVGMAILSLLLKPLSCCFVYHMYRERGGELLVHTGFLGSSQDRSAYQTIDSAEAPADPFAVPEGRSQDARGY
UniProt Q86V24: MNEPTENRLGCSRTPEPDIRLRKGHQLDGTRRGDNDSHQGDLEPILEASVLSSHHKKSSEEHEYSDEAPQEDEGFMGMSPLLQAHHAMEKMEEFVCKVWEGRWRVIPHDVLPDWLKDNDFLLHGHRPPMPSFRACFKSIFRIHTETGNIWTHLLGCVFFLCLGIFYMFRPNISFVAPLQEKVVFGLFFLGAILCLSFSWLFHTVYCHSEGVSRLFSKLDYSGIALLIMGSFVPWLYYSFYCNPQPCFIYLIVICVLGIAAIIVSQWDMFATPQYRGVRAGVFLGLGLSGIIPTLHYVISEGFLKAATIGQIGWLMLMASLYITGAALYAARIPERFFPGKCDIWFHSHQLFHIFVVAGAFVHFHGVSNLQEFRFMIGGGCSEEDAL

What was measured:
Experiment in all cases: log2 fold change, soluble protein after heating vs DMSO (PISA); higher = thermal stabilisation; K562 lysate, 10 uM; active = over 0.2 and 3.5 SD of the protein, either way, in both replicates (recomputed)
lapatinib = compound: CS(=O)(=O)CCNCc1ccc(-c2ccc3ncnc(Nc4ccc(OCc5cccc(F)c5)c(Cl)c4)c3c2)o1 [lapatinib]
In short: (§1)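 Thermal stability, expressed as log-two fold change relative to solvent controls, is given from duplicates. Crude K562 extract in PBS pH 7.4 with 1 mM MgCl2, at 1 mg/mL protein, was treated with 10 μM compound for 30 min and heated in aliquots for 3 min across 48°C-58°C. After pooling, adjustment to 0.5% NP-40 at 4°C and centrifugation at 21,000xg for 90 min, supernatant protein was measured by TMTpro 16plex LC-MS/MS with channel sums equalised.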

pictilisib = compound: CS(=O)(=O)N1CCN(Cc2cc3nc(-c4cccc5[nH]ncc45)nc(N4CCOCC4)c3s2)CC1 [pictilisib]
In short: as §1

crizotinib = compound: C[C@@H](Oc1cc(-c2cnn(C3CCNCC3)c2)cnc1N)c1c(Cl)ccc(F)c1Cl [crizotinib]
In short: as §1

[1] = compound: C[C@H](C1=CC=C(C=C1)C(=O)NC2=C3C=CNC3=NC=C2)N
In short: as §1

duvelisib = compound: C[C@H](Nc1ncnc2nc[nH]c12)c1cc2cccc(Cl)c2c(=O)n1-c1ccccc1 [duvelisib]
In short: as §1

gandotinib = compound: Cc1cc(Nc2cc(CN3CCOCC3)c3nc(C)c(Cc4ccc(Cl)cc4F)n3n2)n[nH]1 [gandotinib]
In short: as §1

tozasertib = compound: Cc1cc(Nc2cc(N3CCN(C)CC3)nc(Sc3ccc(NC(=O)C4CC4)cc3)n2)n[nH]1 [tozasertib]
In short: as §1

doramapimod = compound: Cc1ccc(-n2nc(C(C)(C)C)cc2NC(=O)Nc2ccc(OCCN3CCOCC3)c3ccccc23)cc1 [doramapimod]
In short: as §1

bafetinib = compound: Cc1ccc(NC(=O)c2ccc(CN3CC[C@H](N(C)C)C3)c(C(F)(F)F)c2)cc1Nc1nccc(-c2cncnc2)n1 [bafetinib]
In short: as §1

[2] = compound: Cc1cccc(CC(=O)N2CCc3c2ccc(-c2cn(C)c4ncnc(N)c24)c3F)n1
In short: as §1

nilotinib = compound: Cc1cn(-c2cc(NC(=O)c3ccc(C)c(Nc4nccc(-c5cccnc5)n4)c3)cc(C(F)(F)F)c2)cn1 [nilotinib]
In short: as §1

[3] = compound: Cc1nc(Nc2n[nH]c3c2CN(C(=O)N[C@H](CN(C)C)c2ccccc2)C3(C)C)c2sccc2n1
In short: as §1

dasatinib = compound: Cc1nc(Nc2ncc(C(=O)Nc3c(C)cccc3Cl)s2)cc(N2CCN(CCO)CC2)n1 [dasatinib]
In short: as §1

[4] = compound: Cc1ncc(-c2ccnc(Nc3ccc(S(C)(=O)=O)cc3)n2)n1C(C)C
In short: as §1

[5] = compound: Cn1cc(-c2ccc3c(c2)CCN3C(=O)Cc2cccc(C(F)(F)F)c2)c2c(N)ncnc21
In short: as §1

quisinostat = compound: Cn1cc(CNCC2CCN(c3ncc(C(=O)NO)cn3)CC2)c2ccccc21 [quisinostat]
In short: as §1

tipifarnib = compound: Cn1cncc1[C@@](N)(c1ccc(Cl)cc1)c1ccc2c(c1)c(-c1cccc(Cl)c1)cc(=O)n2C [tipifarnib]
In short: as §1

[6] = compound: NC(=O)Nc1cc(-c2cccc(F)c2)sc1C(=O)N[C@H]1CCCNC1
In short: as §1

[7] = compound: NC(=O)c1cnc(N[C@@H]2CCCC[C@@H]2N)nc1Nc1cccc(-n2nccn2)c1
In short: as §1

[8] = compound: NC1(c2ccc(-c3nc4ccn5c(=O)[nH]nc5c4cc3-c3ccccc3)cc2)CCC1
In short: as §1

Measured: log2 fold change

ADO (UniProt Q96SZ5)
inactive: lapatinib -0.022 | pictilisib -0.013 | crizotinib 0.012 | [1] -0.029 | duvelisib -0.027 | gandotinib 0.027 | tozasertib -0.001 | doramapimod -0.038 | bafetinib 0.033 | [2] -0.006 | nilotinib -0.054 | [3] -0.074 | dasatinib 0.047 | [4] 0.002 | [5] -0.003 | quisinostat 0.008 | tipifarnib 0.045 | [6] -0.017 | [7] 0.017 | [8] -0.019

AKAP12 (UniProt Q02952)
inactive: lapatinib 0.087 | pictilisib -0.063 | crizotinib -0.019 | [1] -0.304 | duvelisib 0.009 | gandotinib 0.073 | tozasertib 0.218 | doramapimod 0 | bafetinib -0.271 | [2] 0.234 | nilotinib -0.121 | [3] -0.063 | dasatinib 0.021 | [4] 0.155 | [5] -0.035 | quisinostat 0.025 | tipifarnib -0.042 | [6] -0.052 | [7] 0.032 | [8] -0.116

ACSL1 (UniProt P33121)
inactive: lapatinib -0.03 | pictilisib -0.094 | crizotinib -0.115 | [1] 0.021 | duvelisib 0.043 | gandotinib -0.049 | tozasertib 0.033 | doramapimod 0.053 | bafetinib -0.038 | [2] 0.061 | nilotinib -0.004 | [3] -0.002 | dasatinib -0.132 | [4] 0.013 | [5] 0.05 | quisinostat 0.007 | tipifarnib -0.013 | [6] 0.034 | [7] -0.025 | [8] -0.04

ACOT9 isoform 4 (UniProt Q9Y305)
inactive: lapatinib -0.007 | pictilisib -0.081 | crizotinib -0.032 | [1] 0.105 | duvelisib -0.003 | gandotinib -0.051 | tozasertib -0.036 | doramapimod 0.028 | bafetinib -0.023 | [2] -0.082 | nilotinib -0.011 | [3] -0.051 | dasatinib -0.007 | [4] -0.004 | [5] 0.016 | quisinostat 0.019 | tipifarnib 0.006 | [6] 0.036 | [7] 0.012 | [8] -0.099

ADPGK (UniProt Q9BRR6)
inactive: lapatinib 0.09 | pictilisib -0.062 | crizotinib 0.099 | [1] 0.034 | duvelisib -0.02 | gandotinib -0.017 | tozasertib -0.017 | doramapimod -0.009 | bafetinib -0.007 | [2] 0.041 | nilotinib -0.02 | [3] -0.045 | dasatinib 0.026 | [4] -0.051 | [5] 0.07 | quisinostat 0.118 | tipifarnib -0.057 | [6] -0.009 | [7] -0.007 | [8] 0.04

AGGF1 (UniProt Q8N302)
inactive: lapatinib -0.046 | pictilisib -0.133 | crizotinib -0.028 | [1] -0.193 | gandotinib 0.139 | tozasertib 0.04 | doramapimod -0.011 | bafetinib 0.047 | [2] 0.268 | nilotinib 0.02 | [3] 0.055 | [4] 0.087 | quisinostat -0.041 | tipifarnib -0.06 | [6] -0.007 | [7] 0.075 | [8] 0.024

Looked up one by one from above, two records:
ACOT9 isoform 4 (UniProt Q9Y305)
inactive: lapatinib -0.007 | pictilisib -0.081 | crizotinib -0.032 | [1] 0.105 | duvelisib -0.003 | gandotinib -0.051 | tozasertib -0.036 | doramapimod 0.028 | bafetinib -0.023 | [2] -0.082 | nilotinib -0.011 | [3] -0.051 | dasatinib -0.007 | [4] -0.004 | [5] 0.016 | quisinostat 0.019 | tipifarnib 0.006 | [6] 0.036 | [7] 0.012 | [8] -0.099

AGGF1 (UniProt Q8N302)
inactive: lapatinib -0.046 | pictilisib -0.133 | crizotinib -0.028 | [1] -0.193 | gandotinib 0.139 | tozasertib 0.04 | doramapimod -0.011 | bafetinib 0.047 | [2] 0.268 | nilotinib 0.02 | [3] 0.055 | [4] 0.087 | quisinostat -0.041 | tipifarnib -0.06 | [6] -0.007 | [7] 0.075 | [8] 0.024

Continued:

AGA (UniProt P20933)
inactive: lapatinib 0.014 | crizotinib -0.19 | tozasertib 0.125 | doramapimod 0.067 | quisinostat 0.084 | [6] -0.029 | [7] 0.048 | [8] 0.01

ADCK5 (UniProt Q3MIX3)
inactive: lapatinib 0.023 | crizotinib 0.024 | duvelisib 0.002 | tozasertib -0.035 | doramapimod 0.031 | nilotinib -0.032 | [3] 0.019 | dasatinib -0.153 | [4] 0.105 | [5] -0.042 | quisinostat 0.018 | tipifarnib 0.11 | [6] -0.014 | [7] -0.033

AGTRAP isoform 2 (UniProt Q6RW13)
inactive: lapatinib 0.003 | pictilisib 0.088 | [1] -0.138 | gandotinib 0.146 | bafetinib -0.008 | [2] 0.156 | [7] -0.043

ADIPOR2 (UniProt Q86V24)
inactive: lapatinib -0.16 | pictilisib -0.008 | crizotinib -0.1 | duvelisib -0.08 | tozasertib -0.105 | doramapimod 0.044 | bafetinib 0.089 | nilotinib 0.118 | [3] -0.011 | dasatinib 0.038 | [4] 0.05 | [5] 0.013 | quisinostat -0.011 | tipifarnib 0.037 | [6] 0.066 | [7] 0 | [8] -0.001
